Measurements taken from US20160046678A1 (ZYNGENIA, published 2016).
Results are given in words; binding and its absence hold for the method and conditions named. Some entries that bind do so weakly or less than the wild type.

target: EGFR (UniProt P00533); test: peptide screen, Example 48

binding, binds:
YAEHCRIFPTDWICTLST [EGA765], YAEHCWMFPTDWICSLRS [EGA762], YAEHCSMFPTDWICTLVT [EGA759], YAEHCWHFPTDWICSLLP [EGA751], YAEHCWRFPGDWICSLIT [EGA757], YSTHCRLFPTDWICTLEG [EGA750], YAEHCTLFPTDWICTLLP [EGA761], YAQHCYQFPSDWICSLLP [EGA747], YFEHCRQFPTDWICTLMP [EGA752], YVEHCWQFPSDWICTLLP [EGA755], YGEHCRSFPTDWICTLLP [EGA749], YAEHCQLFPSDWICSLET [EGA744], YAEHCRHFWTDWICSLKT [EGA748], YLQHCLLFPTDWICTLLP [EGA760], YAEHCRLFPTDWICSLRE [EGA758], YAEHCWLFPKDWICTLIT [EGA763], YAEHCAQFPTDWICSLIS [EGA746], YAEHCRLFPTDWICTIKS [EGA753], YEEHCWQFPGDWICSLRG [EGA764]

target: ErbB2 (UniProt P04626); test: MRD identification, Example 48

binding, binds:
WSGYCEFSDHWDHCGNSK [EGB855], WSGYCEYQDHWAHCGRSM [EGB854], WSGYCEFKDHWDYCGGSY [EGB852], WSGYCEMKDHWAHCGGSI [EGB857], WSGYCEYKDRWAHCRGTM [EGB851], WSGYCEMKDHWAHCSGSI [EGB853]
